In publication PMC10995196 one finds binding data, which are given here for 1 molecule.

Protein sequences, listed by entry. Tags and fused reporters are not part of them.
UniProt P67809: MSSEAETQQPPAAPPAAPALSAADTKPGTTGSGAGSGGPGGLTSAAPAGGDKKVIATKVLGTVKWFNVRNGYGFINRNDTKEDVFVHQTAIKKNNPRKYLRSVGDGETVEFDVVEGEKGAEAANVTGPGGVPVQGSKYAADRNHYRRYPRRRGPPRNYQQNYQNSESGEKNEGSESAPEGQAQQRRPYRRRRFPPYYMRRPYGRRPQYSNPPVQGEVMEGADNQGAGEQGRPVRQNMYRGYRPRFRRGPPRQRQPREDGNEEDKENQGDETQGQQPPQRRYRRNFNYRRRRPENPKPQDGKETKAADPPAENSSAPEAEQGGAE

These are yes or no findings as the source states them, for the method shown. In cells and extracts the contact can be indirect. Some results given as binding are weak or reduced against the parent protein; the word gives no strength.

The target in this assay is Y-box binding protein-1 (YBX1) (human (endogenous in CFPAC-1, SW1990 and PANC-1)) (UniProt P67809). Description: co-IP; immunoprecipitation with a YBX1 antibody, western blot for YBX1, OGT and O-GlcNAcylation; CFPAC-1 and SW1990 cells with GFPT2 knockdown, PANC-1 cells with GFPT2 overexpression and OSMI-1 (40 μm) pretreatment.

B1: O-GlcNAc transferase (OGT) (enzyme, UniProt O15294 1-1046)
chain: MASSVGNVADSTEPTKRMLSFQGLAELAHREYQAGDFEAAERHCMQLWRQEPDNTGVLLLLSSIHFQCRRLDRSAHFSTLAIKQNPLLAEAYSNLGNVYKERGQLQEAIEHYRHALRLKPDFIDGYINLAAALVAAGDMEGAVQAYVSALQYNPDLYCVRSDLGNLLKALGRLEEAKACYLKAIETQPNFAVAWSNLGCVFNAQGEIWLAIHHFEKAVTLDPNFLDAYINLGNVLKEARIFDRAVAAYLRALSLSPNHAVVHGNLACVYYEQGLIDLAIDTYRRAIELQPHFPDAYCNLANALKEKGSVAEAEDCYNTALRLCPTHADSLNNLANIKREQGNIEEAVRLYRKALEVFPEFAAAHSNLASVLQQQGKLQEALMHYKEAIRISPTFADAYSNMGNTLKEMQDVQGALQCYTRAIQINPAFADAHSNLASIHKDSGNIPEAIASYRTALKLKPDFPDAYCNLAHCLQIVCDWTDYDERMKKLVSIVADQLEKNRLPSVHPHHSMLYPLSHGFRKAIAERHGNLCLDKINVLHKPPYEHPKDLKLSDGRLRVGYVSSDFGNHPTSHLMQSIPGMHNPDKFEVFCYALSPDDGTNFRVKVMAEANHFIDLSQIPCNGKAADRIHQDGIHILVNMNGYTKGARNELFALRPAPIQAMWLGYPGTSGALFMDYIITDQETSPAEVAEQYSEKLAYMPHTFFIGDHANMFPHLKKKAVIDFKSNGHIYDNRIVLNGIDLKAFLDSLPDVKIVKMKCPDGGDNADSSNTALNMPVIPMNTIAEAVIEMINRGQIQITINGFSISNGLATTQINNKAATGEEVPRTIIVTTRSQYGLPEDAIVYCNFNQLYKIDPSTLQMWANILKRVPNSVLWLLRFPAVGEPNIQQYAQNMGLPQNRIIFSPVAPKEEHVRRGQLADVCLDTPLCNGHTTGMDVLWAGTPMVTMPGETLASRVAASQLTCLGCLELIAKNRQEYEDIAVKLGTDLEYLKKVRGKVWKQRISSPLFNTKQYTMELERLYLQMWEHYAAGNKPDHMIKPVEVTESA
Turning to B1, the binding result is given as “binds”.
